Laboratory results: patent publication US20150128304A1
No constants are given. Whether binding was seen depends on the method and setting. Some results given as binding are weak or reduced against the parent protein; the word gives no strength. Tags and fused reporters may be left off the sequences shown.

Amino acid sequences for entries named in this document (tags omitted). A change or cut given only in a name is not applied to a line headed by its entry.
UniProt P04386: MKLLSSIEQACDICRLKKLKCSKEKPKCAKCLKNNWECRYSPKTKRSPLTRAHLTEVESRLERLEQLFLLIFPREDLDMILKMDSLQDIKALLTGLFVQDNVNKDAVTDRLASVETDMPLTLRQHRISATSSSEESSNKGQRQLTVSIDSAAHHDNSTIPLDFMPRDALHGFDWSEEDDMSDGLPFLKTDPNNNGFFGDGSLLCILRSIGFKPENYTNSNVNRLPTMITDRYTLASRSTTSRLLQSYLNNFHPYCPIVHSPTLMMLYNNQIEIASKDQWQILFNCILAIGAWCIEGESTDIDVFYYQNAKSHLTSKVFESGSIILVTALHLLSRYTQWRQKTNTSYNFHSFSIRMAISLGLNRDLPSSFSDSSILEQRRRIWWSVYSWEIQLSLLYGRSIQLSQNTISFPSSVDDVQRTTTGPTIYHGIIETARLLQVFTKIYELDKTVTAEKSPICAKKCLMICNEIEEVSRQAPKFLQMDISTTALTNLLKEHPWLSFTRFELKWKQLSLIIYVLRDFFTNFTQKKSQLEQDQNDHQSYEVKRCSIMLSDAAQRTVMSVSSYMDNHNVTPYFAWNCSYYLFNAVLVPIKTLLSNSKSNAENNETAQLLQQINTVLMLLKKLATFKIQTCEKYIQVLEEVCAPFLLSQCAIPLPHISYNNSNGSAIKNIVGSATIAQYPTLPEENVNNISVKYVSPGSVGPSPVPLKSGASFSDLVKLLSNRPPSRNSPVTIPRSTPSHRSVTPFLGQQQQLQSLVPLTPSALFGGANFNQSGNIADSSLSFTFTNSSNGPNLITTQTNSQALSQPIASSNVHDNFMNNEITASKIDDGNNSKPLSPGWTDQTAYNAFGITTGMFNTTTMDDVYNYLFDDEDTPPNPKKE
UniProt Q5W6R4: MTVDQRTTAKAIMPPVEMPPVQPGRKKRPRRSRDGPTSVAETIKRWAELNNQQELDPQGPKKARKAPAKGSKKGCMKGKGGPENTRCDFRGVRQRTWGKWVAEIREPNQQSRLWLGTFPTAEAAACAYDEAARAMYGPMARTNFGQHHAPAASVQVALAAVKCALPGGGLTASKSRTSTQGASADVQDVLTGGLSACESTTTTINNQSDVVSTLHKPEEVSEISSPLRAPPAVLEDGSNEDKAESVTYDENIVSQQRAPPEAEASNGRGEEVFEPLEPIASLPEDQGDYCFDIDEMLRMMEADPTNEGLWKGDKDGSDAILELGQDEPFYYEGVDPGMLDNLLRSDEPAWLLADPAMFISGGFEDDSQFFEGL
UniProt O82132: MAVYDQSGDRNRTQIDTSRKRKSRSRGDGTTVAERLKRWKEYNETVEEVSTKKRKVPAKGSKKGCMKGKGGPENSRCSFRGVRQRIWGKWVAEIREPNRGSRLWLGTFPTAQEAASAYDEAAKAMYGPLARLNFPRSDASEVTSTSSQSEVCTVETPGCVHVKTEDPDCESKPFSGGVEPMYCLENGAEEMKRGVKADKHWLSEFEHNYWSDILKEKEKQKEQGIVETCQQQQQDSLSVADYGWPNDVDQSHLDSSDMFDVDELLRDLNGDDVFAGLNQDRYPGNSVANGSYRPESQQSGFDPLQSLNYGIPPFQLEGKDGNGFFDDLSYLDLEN

B1: Arabidopsis thaliana NF-YC10 full-length fused to the activation domain of pGADT7 (yeast two-hybrid prey) (protein, not shown: large carriers)
chain: MVSSKKPKEKKARSDVVVNKASGRSKRSSGSRTKKTSNKVNIVKKKPEIYEISESSSSDSVEEAIRGDEAKKSNGVVSKRGNGKSVGIPTKTSKNREEDDGGAEDAKIKFPMNRIRRIMRSDNSAPQIMQDAVFLVNKATEMFIERFSEEAYDSSVKDKKKFIHYKHLSSVVSNDQRYEFLADSVPEKLKAEAALEEWERGMTDAG
B2: Arabidopsis thaliana NF-YC10 full-length fused to a YFP fragment (BiFC construct in pBI221) (protein, not shown: large carriers)
chain: B1 chain

How the values were obtained:
[1] = molecular target: T1, Oryza sativa OsDREB2B2 (1-146 a.a.) fused to the DNA-binding domain of pGBKT7 (yeast two-hybrid bait) (Oryza sativa) (UniProt P04386+Q5W6R4); test: yeast two-hybrid in AH109, growth on QDO medium
[2] = molecular target: T2, DREB2A (1-205 a.a.), region excluding the C-terminal transcriptional activation domain, fused to the DNA-binding domain of pGBKT7 (yeast two-hybrid bait) (Arabidopsis thaliana) (UniProt P04386+O82132); test: yeast two-hybrid in AH109, growth on QDO medium
[3] = molecular target: T1, Oryza sativa OsDREB2B2 (1-146 a.a.) fused to the DNA-binding domain of pGBKT7 (yeast two-hybrid bait) (Oryza sativa); test: yeast two-hybrid, growth on QDO medium
[4] = molecular target: T2, DREB2A (1-205 a.a.), region excluding the C-terminal transcriptional activation domain, fused to the DNA-binding domain of pGBKT7 (yeast two-hybrid bait) (Arabidopsis thaliana); test: yeast two-hybrid, growth on QDO medium
[5] = molecular target: Oryza sativa OsDREB2B2 full-length fused to a YFP fragment (BiFC construct in pBI221) (Oryza sativa) (UniProt Q5W6R4); test: BiFC (split YFP), transient expression in Arabidopsis protoplasts

| Binder | binding [1] | binding [2] | binding [3] | binding [4] | binding [5] |
| --- | --- | --- | --- | --- | --- |
| B1 | binds | binds | binds | binds |  |
| B2 |  |  |  |  | binds |
